These are yes or no findings as the source states them, for the method shown. Binding can be weak; no strength is given.
Biological target: T1, human CLPB (isoform 2), construct CLPB-N127, wild type (human) (UniProt Q9H078)
T1 sequence: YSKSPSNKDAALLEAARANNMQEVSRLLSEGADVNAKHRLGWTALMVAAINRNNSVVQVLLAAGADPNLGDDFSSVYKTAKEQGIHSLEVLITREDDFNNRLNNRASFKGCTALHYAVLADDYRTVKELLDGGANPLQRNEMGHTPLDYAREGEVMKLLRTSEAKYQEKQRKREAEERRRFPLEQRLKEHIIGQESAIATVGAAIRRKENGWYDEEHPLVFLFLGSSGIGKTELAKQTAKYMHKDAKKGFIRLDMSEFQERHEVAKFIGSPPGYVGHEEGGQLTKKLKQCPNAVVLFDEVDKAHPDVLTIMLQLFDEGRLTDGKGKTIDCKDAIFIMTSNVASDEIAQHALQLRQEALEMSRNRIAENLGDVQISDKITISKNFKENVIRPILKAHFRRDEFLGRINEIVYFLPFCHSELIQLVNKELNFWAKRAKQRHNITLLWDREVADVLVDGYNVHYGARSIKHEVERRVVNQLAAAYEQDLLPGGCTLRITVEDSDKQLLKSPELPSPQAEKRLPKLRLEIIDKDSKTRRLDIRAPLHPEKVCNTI
Experiment: cryo-EM 2D classification; CLPB-casein-ATPγS dataset: 20 μL casein (4.0 mg/mL) added to 40 μL CLPB (2.0 mg/mL) before vitrification, excess ATPγS; both purified

## casein (model substrate)
  binding: binds

Source: PMC9934407, “Comprehensive structural characterization of the human AAA+ disaggregase CLPB in the apo- and substrate-bound states reveals a unique mode of action driven by oligomerization” (PLOS Biology, 2023)
